Measurements reported in the supplement of paper PMC5355238.
Where a name gives a salt, the structure may show the parent alone. This is one part of the list. Most values lie at the level of the controls, where differences are scatter.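 Reh, a human leukemia cell line, is read out by flow cytometry as the median γH2AX antibody signal in S-phase cells; the score counts standard deviations from the median difference of each paired plate set. Scores above 2.5 were candidate hits; scores below -2 mark compounds lowering MK1775-induced damage.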

What follows are molecules tested on Reh (assay: Z' of S-phase gammaH2AX difference (drug + MK1775 minus drug alone) (Z-score); higher = stronger synergistic S-phase DNA damage with MK1775). Details: MK1775 concentration 400 nM; first compound 10 µM; 4 h.

| SMILES | Z' of S-phase gammaH2AX difference (Z-score) |
| --- | --- |
| CNC(=O)[C@H]1O[C@@H](n2cnc3c(NCc4cccc(I)c4)ncnc32)[C@H](O)[C@@H]1O + C=CCn1c(=O)c2cnc(Nc3ccc(N4CCN(C)CC4)cc3)nc2n1-c1cccc(C(C)(C)O)n1 [MK1775] | inactive: 0.27 |
| C=C[C@H]1CN2CC[C@H]1C[C@@H]2[C@@H](O)c1ccnc2ccc(OC)cc12 [Quinidine sulfate] + C=CCn1c(=O)c2cnc(Nc3ccc(N4CCN(C)CC4)cc3)nc2n1-c1cccc(C(C)(C)O)n1 [MK1775] | inactive: 0.184 |
| Cn1c(=O)c2[nH]cnc2n(C)c1=O [Aminophylline ethylenediamine] + C=CCn1c(=O)c2cnc(Nc3ccc(N4CCN(C)CC4)cc3)nc2n1-c1cccc(C(C)(C)O)n1 [MK1775] | inactive: 0.307 |
| CN(C)CCC=C1c2ccccc2CCc2ccccc21 [Amitriptyline hydrochloride] + C=CCn1c(=O)c2cnc(Nc3ccc(N4CCN(C)CC4)cc3)nc2n1-c1cccc(C(C)(C)O)n1 [MK1775] | inactive: 0.357 |
| Cc1[nH]c(=O)c(C#N)cc1-c1ccncc1 [Milrinone] + C=CCn1c(=O)c2cnc(Nc3ccc(N4CCN(C)CC4)cc3)nc2n1-c1cccc(C(C)(C)O)n1 [MK1775] | inactive: 0.252 |
| CC(C)[C@H](CO)Nc1nc(Nc2cccc(Cl)c2)c2ncn(C(C)C)c2n1 [Purvalanol A] + C=CCn1c(=O)c2cnc(Nc3ccc(N4CCN(C)CC4)cc3)nc2n1-c1cccc(C(C)(C)O)n1 [MK1775] | inactive: -3.02 |
| CN(C)c1cc2c(Nc3ccc4c(cnn4Cc4ccccc4)c3)ncnc2cn1 + C=CCn1c(=O)c2cnc(Nc3ccc(N4CCN(C)CC4)cc3)nc2n1-c1cccc(C(C)(C)O)n1 [MK1775] | inactive: 1.28 |
| COc1cc(Cc2cnc(N)nc2N)cc(OC)c1OC [Trimethoprim] + C=CCn1c(=O)c2cnc(Nc3ccc(N4CCN(C)CC4)cc3)nc2n1-c1cccc(C(C)(C)O)n1 [MK1775] | inactive: -1.21 |
| NC(=O)C(=O)O [Sodium Oxamate] + C=CCn1c(=O)c2cnc(Nc3ccc(N4CCN(C)CC4)cc3)nc2n1-c1cccc(C(C)(C)O)n1 [MK1775] | inactive: 0.665 |
| FC(F)(F)c1cc(COC2CCCNC2c2ccccc2)cc(C(F)(F)F)c1 [L-733,060 hydrochloride] + C=CCn1c(=O)c2cnc(Nc3ccc(N4CCN(C)CC4)cc3)nc2n1-c1cccc(C(C)(C)O)n1 [MK1775] | inactive: 0.17 |
| C[C@@H](Oc1cc(-n2cnc3ccc(CN4CCN(C)CC4)cc32)sc1C(N)=O)c1ccccc1C(F)(F)F + C=CCn1c(=O)c2cnc(Nc3ccc(N4CCN(C)CC4)cc3)nc2n1-c1cccc(C(C)(C)O)n1 [MK1775] | inactive: -0.354 |
| CC1(COc2ccc3c(c2)ncn3-c2ccc3cccc(N4CCC(N)CC4)c3n2)COC1 + C=CCn1c(=O)c2cnc(Nc3ccc(N4CCN(C)CC4)cc3)nc2n1-c1cccc(C(C)(C)O)n1 [MK1775] | inactive: -1.27 |
| NS(=O)(=O)c1cccc2c1c([N+](=O)[O-])cc1nc(O)c(O)nc12 [NBQX disodium] + C=CCn1c(=O)c2cnc(Nc3ccc(N4CCN(C)CC4)cc3)nc2n1-c1cccc(C(C)(C)O)n1 [MK1775] | inactive: -0.233 |
| N#CC(=C(/N)Sc1ccccc1N)/C(C#N)=C(/N)Sc1ccccc1N + C=CCn1c(=O)c2cnc(Nc3ccc(N4CCN(C)CC4)cc3)nc2n1-c1cccc(C(C)(C)O)n1 [MK1775] | inactive: 1.36 |
| NC(N)=NCc1cccc(I)c1 [m-Iodobenzylguanidine hemisulfate] + C=CCn1c(=O)c2cnc(Nc3ccc(N4CCN(C)CC4)cc3)nc2n1-c1cccc(C(C)(C)O)n1 [MK1775] | inactive: 0.294 |
| CC(=O)NCCc1c[nH]c2ccc(O)cc12 [N-Acetyl-5-hydroxytryptamine] + C=CCn1c(=O)c2cnc(Nc3ccc(N4CCN(C)CC4)cc3)nc2n1-c1cccc(C(C)(C)O)n1 [MK1775] | inactive: -0.408 |
| O=c1ccc2ccc(O)c(O)c2o1 [Daphnetin] + C=CCn1c(=O)c2cnc(Nc3ccc(N4CCN(C)CC4)cc3)nc2n1-c1cccc(C(C)(C)O)n1 [MK1775] | inactive: -0.114 |
| CN1CCC(=C2c3ccccc3CC(=O)c3sccc32)CC1 [Ketotifen fumarate] + C=CCn1c(=O)c2cnc(Nc3ccc(N4CCN(C)CC4)cc3)nc2n1-c1cccc(C(C)(C)O)n1 [MK1775] | inactive: -0.697 |
| COc1ccccc1N1CCN(CC(O)COc2cccc3ccccc23)CC1 (centres undefined) [Naftopidil dihydrochloride] + C=CCn1c(=O)c2cnc(Nc3ccc(N4CCN(C)CC4)cc3)nc2n1-c1cccc(C(C)(C)O)n1 [MK1775] | inactive: 0.17 |
| O=C(O)CC[C@H]1CC[C@@](c2cc(F)ccc2F)(S(=O)(=O)c2ccc(Cl)cc2)CC1 + C=CCn1c(=O)c2cnc(Nc3ccc(N4CCN(C)CC4)cc3)nc2n1-c1cccc(C(C)(C)O)n1 [MK1775] | inactive: 0.153 |
| CCCN(CCC)C(=O)C(CCC(=O)O)NC(=O)c1ccccc1 (centres undefined) [Proglumide] + C=CCn1c(=O)c2cnc(Nc3ccc(N4CCN(C)CC4)cc3)nc2n1-c1cccc(C(C)(C)O)n1 [MK1775] | inactive: 0.102 |
| CN1CCc2ccccc2Cc2[nH]c3ccccc3c2CC1 + C=CCn1c(=O)c2cnc(Nc3ccc(N4CCN(C)CC4)cc3)nc2n1-c1cccc(C(C)(C)O)n1 [MK1775] | inactive: -0.388 |
| CS(=O)(=O)CCNCc1ccc(-c2ccc3ncnc(Nc4ccc(OCc5cccc(F)c5)c(Cl)c4)c3c2)o1 [Lapatinib Ditosylate (Tykerb)] + C=CCn1c(=O)c2cnc(Nc3ccc(N4CCN(C)CC4)cc3)nc2n1-c1cccc(C(C)(C)O)n1 [MK1775] | inactive: -0.381 |
| COc1cc(Nc2ncc(F)c(Nc3ccc4c(n3)NC(=O)C(C)(C)O4)n2)cc(OC)c1OC [R406(free base)] + C=CCn1c(=O)c2cnc(Nc3ccc(N4CCN(C)CC4)cc3)nc2n1-c1cccc(C(C)(C)O)n1 [MK1775] | inactive: -0.999 |

In another format: entries from further up
SMILES	Z' of S-phase gammaH2AX difference (Z-score)
CN1CCC(=C2c3ccccc3CC(=O)c3sccc32)CC1 [Ketotifen fumarate] + C=CCn1c(=O)c2cnc(Nc3ccc(N4CCN(C)CC4)cc3)nc2n1-c1cccc(C(C)(C)O)n1 [MK1775]	inactive: -0.697
COc1ccccc1N1CCN(CC(O)COc2cccc3ccccc23)CC1 (centres undefined) [Naftopidil dihydrochloride] + C=CCn1c(=O)c2cnc(Nc3ccc(N4CCN(C)CC4)cc3)nc2n1-c1cccc(C(C)(C)O)n1 [MK1775]	inactive: 0.17
O=C(O)CC[C@H]1CC[C@@](c2cc(F)ccc2F)(S(=O)(=O)c2ccc(Cl)cc2)CC1 + C=CCn1c(=O)c2cnc(Nc3ccc(N4CCN(C)CC4)cc3)nc2n1-c1cccc(C(C)(C)O)n1 [MK1775]	inactive: 0.153
CCCN(CCC)C(=O)C(CCC(=O)O)NC(=O)c1ccccc1 (centres undefined) [Proglumide] + C=CCn1c(=O)c2cnc(Nc3ccc(N4CCN(C)CC4)cc3)nc2n1-c1cccc(C(C)(C)O)n1 [MK1775]	inactive: 0.102
CN1CCc2ccccc2Cc2[nH]c3ccccc3c2CC1 + C=CCn1c(=O)c2cnc(Nc3ccc(N4CCN(C)CC4)cc3)nc2n1-c1cccc(C(C)(C)O)n1 [MK1775]	inactive: -0.388
